Laboratory results: patent US20210206877A1
Changes are numbered by the printed parent chain. Results are given in words; binding and its absence hold for the method and conditions named. Some results given as binding are weak or reduced against the parent protein; the word gives no strength. Blank lines part the entries; values can stand above or below the binder they belong to.

The chains behind the UniProt entries cited, without tags or fusion partners. Where a name states a change or a piece, a line headed by the entry shows the natural chain unless it says otherwise.
UniProt P56817: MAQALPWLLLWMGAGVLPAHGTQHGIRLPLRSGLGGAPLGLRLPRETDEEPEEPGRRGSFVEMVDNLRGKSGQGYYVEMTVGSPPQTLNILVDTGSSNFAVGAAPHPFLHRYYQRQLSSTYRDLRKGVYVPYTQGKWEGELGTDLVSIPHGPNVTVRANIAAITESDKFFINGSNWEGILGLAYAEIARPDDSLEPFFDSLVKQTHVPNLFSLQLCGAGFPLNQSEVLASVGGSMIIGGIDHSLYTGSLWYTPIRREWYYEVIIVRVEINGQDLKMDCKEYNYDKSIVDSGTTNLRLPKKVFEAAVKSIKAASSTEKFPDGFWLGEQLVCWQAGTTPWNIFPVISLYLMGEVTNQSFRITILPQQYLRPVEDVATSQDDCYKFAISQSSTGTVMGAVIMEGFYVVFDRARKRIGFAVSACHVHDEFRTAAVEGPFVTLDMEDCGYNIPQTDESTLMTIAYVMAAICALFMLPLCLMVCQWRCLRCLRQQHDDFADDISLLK

Assays:
[1] = target: His-tagged BACE1 protein (Homo sapiens (Human)) (UniProt P56817); assay: SPR (BIAcore T200), single-cycle kinetics, His-tagged BACE1 captured by anti-His antibody, Fab injected
[2] = target: His-tagged BACE1 protein (Homo sapiens (Human)) (UniProt P56817); assay: SPR (BIAcore T200), single-cycle kinetics, His-tagged BACE1 captured by anti-His antibody, Fab injected; reference of the comparison

binding [1]: binds
B1: affinity matured antibody 6266 variant 8, Fab (Fab, V domains shown)
VH: QVQLVQSGAEVKKPGSSVKVSCKASGGTLKGYGVSWVRQAPGQGLEWMGNIIPGFGTANYAQKFQGRVTITADESTSTAYMELSSLRSEDTAVYYCARGGGTKYGMLDVWGQGTMVTVSS
VL: EIVMTQSPATLSVSPGERATLSCRASQSVSSNLAWYQQKPGQAPRLLIYGASTRAYGIPARFSGSGSGTEFTLTISSLQSEDFAVYYCQQLILWPPRTFGGGTKVEIK

binding [1]: binds
B2: affinity matured antibody 6266 variant 3, Fab (Fab, V domains shown)
VH: B1 VH with K30S, G31H, F55I, G99S
VL: B1 VL

binding [1]: binds
B3: affinity matured antibody 6266 variant 4, Fab (Fab, V domains shown)
VH: B1 VH with K30S, G31H, F55I, G99S
VL: B1 VL with T53K, Y56T

binding [1]: binds
B4: affinity matured antibody 6266 variant 11, Fab (Fab, V domains shown)
VH: B1 VH with K30S, G99S
VL: B1 VL

binding [1]: binds
B5: affinity matured antibody 6266 variant 15, Fab (Fab, V domains shown)
VH: B1 VH with K30S, G99S, M106E
VL: B1 VL with Y56T

binding [1]: binds
B6: affinity matured antibody 6266 variant 12, Fab (Fab, V domains shown)
VH: B1 VH with K30N, G99S
VL: B1 VL with Y56T

binding [1]: binds
B7: affinity matured antibody 6266 variant 14, Fab (Fab, V domains shown)
VH: B1 VH with K30S, T57V, G99S, Y104W
VL: B1 VL with Y56T

binding [1]: binds
B8: affinity matured antibody 6266 variant 9, Fab (Fab, V domains shown)
VH: B1 VH
VL: B1 VL with T53K, Y56T

binding [1]: binds
B9: affinity matured antibody 6266 variant 2, Fab (Fab, V domains shown)
VH: B1 VH with K30S, G31H, F55I, G99S
VL: B1 VL with T53K, Y56T, F83A

binding [1]: binds
B10: affinity matured antibody 6266 variant 1, Fab (Fab, V domains shown)
VH: B1 VH with K30S, G31H, F55I, G99S
VL: B1 VL with Y56T

binding [1]: binds
B11: affinity matured antibody 6266 variant 7, Fab (Fab, V domains shown)
VH: B1 VH with K30S, G31H, F55I, G99S, M106E
VL: B1 VL with F83A

binding [1]: binds
B12: affinity matured antibody 6266 variant 13, Fab (Fab, V domains shown)
VH: B1 VH with K30S, V34M, G99S
VL: B1 VL with Y56T

binding [2]: binds
B13: antibody 6266, Fab (reference of the affinity maturation SPR) (Fab, V domains shown)
VH: B1 VH with K30S, G99S
VL: B1 VL with Y56T

binding [1]: binds
B14: affinity matured antibody 6266 variant 5, Fab (Fab, V domains shown)
VH: B1 VH with K30S, G31H, F55I, G99S, K103Q
VL: B1 VL with T53K, Y56T, F83A

binding [1]: binds
B15: affinity matured antibody 6266 variant 6, Fab (Fab, V domains shown)
VH: B1 VH with K30S, G31H, F55I, G99S, K103Q
VL: B1 VL with F83A

binding [1]: binds
B16: affinity matured antibody 6266 variant 10, Fab (Fab, V domains shown)
VH: B1 VH with K30S, G99S
VL: B1 VL with T53K, Y56T
